In PubChem BioAssay AID493014 (National Center for Advancing Translational Sciences (NCATS), 2011):
Out of some 340,000 compounds screened, about 170 (0.05%) were called active. The inconclusive results got no clear call from the source; some entries with a clear call stand among them for comparison. The call rests on the fitted dose curve; in most records, active means well fitted inhibition curve with a large enough effect in the signal ratio, with a control signal flat (not every such curve was filed as active); inconclusive means small, poorly fitted or top-dose-only effect, or effect the other way, or a change in a side signal; inactive means flat fitted curve, though single readings scatter; the % refers to the signal ratio. A potency beside an inconclusive call is a rough fit, not a confirmed value.
Potency means the concentration at half of the fitted maximal effect.

Assay: qHTS Assay to Find Inhibitors of Chronic Active B-Cell Receptor Signaling;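 on activity change, negative = inhibition: plate controls were basal doxycycline-induced cells for no effect and cells given 10 µM MG132 for full effect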
Conditions: ABC-DLBCL IkBa-CBG/CBR reporter, luminescence ratio (green luciferase fused to IkBa over red control in TMD8 lymphoma cells), 4 h; activity change, negative = inhibition: at 46.1 µM (top of the series)
Summary of the method: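 Compounds up to 46 uM were incubated four hours with TMD8 cells whose green CBG68 luciferase is fused to IkappaBalpha; red CBR luminescence normalised the signal, and concentration-effect curves were fitted to fusion, red and ratio data.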
In the case of `CCN(c1ccccc1)S(=O)(=O)c1ccc(Cl)c(NC(=O)COC(=O)c2cc(O)c3ccccc3c2O)c1`, the activity change, negative = inhibition was inconclusive: 1.97%. For `O=S1(=O)C[C@@H](O)[C@@H](Nc2ccc(Cl)cc2)C1`, the activity change, negative = inhibition was inconclusive: 8.16%. In the case of `O=S(=O)(c1ccc(-c2csc(Nc3ccc(F)cc3)n2)cc1)N1CCCC1`, the activity change, negative = inhibition was inconclusive: -0.796%. For `COc1cc(C2C(C#N)=C(N)OC3=C2C(=O)CCC3)cc2c1OCO2` (stereo unspecified), the activity change, negative = inhibition was inconclusive: 3.5%. For `COc1ccccc1CNC(=O)c1cc2c(C)nn(Cc3ccc(F)cc3)c2s1`, the Potency was inconclusive: 8.91 µM [falling, partial curve, poor fit]. For `COc1ccc(-c2cc(C(=O)NCCc3ccccc3)c3cc(C(C)C)ccc3n2)cc1`, the activity change, negative = inhibition was inconclusive: 1.6%. In the case of `CCOc1cc(/C=C2/C(=O)ON=C2C)ccc1OCc1ccccc1`, the activity change, negative = inhibition was inconclusive: 11.4%. In the case of `CCOc1ccc(S(=O)(=O)NC(C)(C)C)cc1-c1nc2c(C(C)(C)C)nn(C)c2c(=O)[nH]1`, the activity change, negative = inhibition was inconclusive: -0.111%. With `CCc1cc2c(N3CCN(C(=O)c4ccco4)CC3)ncnc2s1` the activity change, negative = inhibition was “inactive”. With `COc1ccc(Cl)cc1NC(=O)CCN1CCN(Cc2ccccc2)CC1` the activity change, negative = inhibition was “inactive”. For `Cc1ccccc1NC(=O)N1CCc2ccccc2C1`, the Potency was inconclusive: 22.4 µM [falling, single point]. In the case of `CCOC(=O)c1cc(S(=O)(=O)N2CCN(Cc3ccccc3)CC2)cn1C`, the activity change, negative = inhibition was inconclusive: 1.23%. For `O=C1CC(Sc2nnc(-c3ccccc3)o2)C(=O)N1c1ccccc1` (stereo unspecified), the Potency was inconclusive: 25.9 µM [rising, partial curve, poor fit]. For `COc1ccc(CN2CCN(C(=O)c3cc(OC)c(OC)c(OC)c3)CC2)cc1OC`, the Potency was inconclusive: 32.6 µM [falling, single point]. With `Cc1cc(C(=O)Cn2cc(C(F)(F)F)ccc2=O)c(C)n1CC1CCCO1` (stereo unspecified) the activity change, negative = inhibition was inconclusive: 5.15%. With `COc1ccc(NC(=O)CCc2nnc3ccc(N4CCC(C)CC4)nn23)cc1` the activity change, negative = inhibition was “inactive”. For `O=C(c1ccccc1F)N1CCN(S(=O)(=O)c2ccc3c(c2)OCCO3)CC1`, the Potency was inconclusive: 12.6 µM [falling, partial curve]. With `Nn1cnc2c([nH]c3ccccc32)c1=O` the activity change, negative = inhibition was “inactive”. For `CCN1C(=S)SC(=O)C1=C1C=C(C)N(Cc2ccco2)C(C)=C1`, the activity change, negative = inhibition was “inactive”. In the case of `O=C1c2sc3nc4n(c(=O)c3c2CCC1Br)CCCCC4` (stereo unspecified), the activity change, negative = inhibition was “inactive”. With `O=C(Cc1ccccc1[N+](=O)[O-])OCc1cccc([N+](=O)[O-])c1` the activity change, negative = inhibition was inconclusive: -1.95%. With `O=c1[nH]c2cc([N+](=O)[O-])c([N+](=O)[O-])cc2[nH]c1=O` the activity change, negative = inhibition was “inactive”. In the case of `Cc1ccc(F)cc1CNC(=O)C1CCC(=O)N(CCCN2CCCC2=O)C1` (stereo unspecified), the activity change, negative = inhibition was “inactive”. With `Cc1ccccc1OCc1nc(-c2ccc(Br)o2)no1` the activity change, negative = inhibition was inconclusive: 18%. For `O=C(O)c1ccc(CSc2nc3ccccc3[nH]2)cc1`, the Potency was inconclusive: 12.6 µM [falling, partial curve]. With `COc1ccccc1N1CCN(S(=O)(=O)CCNC(=O)CC2CCCCC2)CC1` the activity change, negative = inhibition was inconclusive: -0.0171%. With `CCOCC(=O)Nc1cccc(OC)c1` the Potency was inconclusive: 5.8 µM [falling, partial curve, poor fit]. For `O=C(Nc1ccn(CC(=O)N2CCN(c3ccccn3)CC2)c(=O)n1)OCc1ccccc1`, the activity change, negative = inhibition was “inactive”. With `CCCCn1c(=S)[nH]c2ccccc2c1=O` the activity change, negative = inhibition was inconclusive: 1.91%. With `CCOC(=O)C1CCN(Cc2cccc(OC)c2)CC1` the activity change, negative = inhibition was inconclusive: -3.8%. With `O=C1CC(N2CCN(c3ccc(O)cc3)CC2)C(=O)N1c1ccc2c(c1)OCO2` (stereo unspecified) the activity change, negative = inhibition was “inactive”. In the case of `O=C1C(C=NCc2ccccn2)=C(O)c2ccccc21`, the Potency was inconclusive: 25.1 µM [falling, single point]. For `CC1=C(C(=O)OCc2ccccc2)C(c2ccc(Cl)cc2)NC(=O)N1CCCCCC(=O)O` (stereo unspecified), the activity change, negative = inhibition was inconclusive: -12.8%. In the case of `COc1ccc(NC(=S)NC(=O)c2ccccc2Cl)cc1`, the Potency was inconclusive: 0.794 µM [falling, full curve, poor fit]. With `O=C1c2[nH]nc(-c3ccccc3O)c2C(c2ccc(F)cc2)N1Cc1ccco1` (stereo unspecified) the activity change, negative = inhibition was “inactive”. With `CCN(CC)C(=O)CN1C(=O)NC2(CCc3ccccc3C2)C1=O` (stereo unspecified) the activity change, negative = inhibition was inconclusive: -4.78%. For `Cc1cccc(NCc2nc(SCC(=O)Nc3ccccc3Br)n[nH]2)c1`, the activity change, negative = inhibition was inconclusive: -1.18%. For `COc1cc(-c2nn3c(-c4ccccc4)nnc3s2)cc(OC)c1OC`, the activity change, negative = inhibition was inconclusive: -1.99%. With `O=C(NNC(=O)c1cc(Cl)ccc1O)c1cccc(S(=O)(=O)N2CCOCC2)c1` the Potency was inconclusive: 23.1 µM [falling, partial curve]. With `CC(/C=C/C=C/c1ccccc1)=N/NC(=O)CNc1ccccc1C` the activity change, negative = inhibition was inconclusive: 6.39%. In the case of `COc1ccc(-c2csc(N(Cc3ccco3)C(=O)c3cccs3)n2)cc1`, the activity change, negative = inhibition was “inactive”. In the case of `O=C(Nc1cccc(S(=O)(=O)c2cccc(NC(=O)c3ccco3)c2)c1)c1ccco1`, the Potency was inconclusive: 15.8 µM [falling, partial curve]. For `CCN(CC)C(=O)CSc1nc2ncccc2[nH]1`, the activity change, negative = inhibition was inconclusive: 1.68%. With `COc1ccc2c3n(nc2c1)CCN=C3c1cc(Cl)c(N)c(Cl)c1` the Potency was inconclusive: 9.2 µM [falling, partial curve]. For `COCCCNC(=S)N/N=C/c1ccc(O)cc1O`, the Potency was inconclusive: 1 µM [falling, partial curve]. With `COc1ccc(OC)c(/C=N/NC(=O)CCc2ccc(O)c(O)c2)c1` the Potency was inconclusive: 29.1 µM [falling, single point]. In the case of `CCNC(=S)N1CCc2cc(OC)c(OC)cc2C1COc1ccc(OC)cc1` (stereo unspecified), the activity change, negative = inhibition was inconclusive: -24.9%. With `Cc1ccc(NC(=O)CN2C(=O)S/C(=C\c3cc(Cl)c(OCC(=O)O)c(Cl)c3)C2=O)cc1` the activity change, negative = inhibition was “inactive”. In the case of `CNC(=O)COc1ccc(-c2nn(C)c(=O)c3ccccc23)cc1`, the activity change, negative = inhibition was inconclusive: -9.95%. In the case of `CCC(=O)N1CCc2cc(OC)c(OC)cc2C1COc1ccc(C(=O)OC)cc1` (stereo unspecified), the Potency was inconclusive: 1.3 µM [falling, full curve, poor fit]. For `COc1ccc(/C=N/NC(=O)CSc2ccccc2)cc1OC`, the activity change, negative = inhibition was inconclusive: -0.803%. With `CCCOc1ccc(C(=O)C(CN2CCCC2)c2ccccc2)cc1` (stereo unspecified) the activity change, negative = inhibition was inconclusive: 8.67%. For `O=C(O)CCN1c2ccccc2Sc2ccccc21`, the activity change, negative = inhibition was “inactive”. In the case of `COc1cccc(C(=O)Nc2cc(C(=O)NCCc3ccccc3)ccc2Cl)c1`, the activity change, negative = inhibition was “inactive”. For `O=C(Nc1nnc(SCc2ccc(F)cc2)s1)c1ccccn1`, the Potency was inconclusive: 3.16 µM [falling, full curve]. With `O=C(COC(=O)c1cncc(Br)c1)NCc1ccc(Cl)cc1` the activity change, negative = inhibition was inconclusive: 24.3%. For `O=C(Nc1ccc2c(c1)OCO2)c1ccc2nc[nH]c2c1`, the Potency was inconclusive: 29.1 µM [falling, single point]. For `Cc1nc2ccccc2n1CCc1nc2c3ccccc3nc(SCC(=O)Nc3ccc(C(C)C)cc3)n2n1`, the activity change, negative = inhibition was inconclusive: -3.42%. For `CCOC(=O)c1cc2ccc(OC(=O)c3ccco3)cc2oc1=O`, the activity change, negative = inhibition was inconclusive: -24.5%. For `CC(=O)N1N=C(c2ccc(C)cc2)CC1c1ccc2c(c1)OCO2` (stereo unspecified), the activity change, negative = inhibition was inconclusive: 0.372%. For `O=C(NCCc1ccccc1)C1CCN(C(=O)N2CCOc3ccccc32)CC1`, the activity change, negative = inhibition was inconclusive: 9.85%. In the case of `Cc1cccc(C)c1N1CCN(c2ccc3nnc(C(F)(F)F)n3n2)CC1`, the activity change, negative = inhibition was inconclusive: -4.08%. With `COc1ccc(CC(=O)Nc2cccc(-c3nnc(-c4ccccc4)o3)c2)cc1OC` the activity change, negative = inhibition was inconclusive: -18.3%. With `CC(C)n1ncc2c(C(=O)Nc3ccc(S(N)(=O)=O)cc3)cc(C3CC3)nc21` the activity change, negative = inhibition was inconclusive: -6.94%. With `Nc1ccc(-c2nc3cc([N+](=O)[O-])ccc3o2)cc1` the Potency was inconclusive: 14.1 µM [falling, single point]. For `C#CCOCCOCCOCCNc1nc(N2CCN(C(=O)CCCCCCCCCCNC(=O)[C@H](CO)n3cc(CCCSC)nn3)CC2)nc(N2CCN(C(=O)CCCCCCCCCCNC(=O)[C@H](CCCCN)n3cc(CCO)nn3)CC2)n1`, the activity change, negative = inhibition was inconclusive: -0.717%. With `O=C(O)c1ccc(CNCc2ccc(Cl)cc2Cl)cc1` the Potency was inconclusive: 16.4 µM [falling, single point]. With `COc1ccc(CNC(=O)C2CCN(c3nccs3)CC2)cc1` the activity change, negative = inhibition was “inactive”. For `CCNc1nc(NCC)n2c(SCC(=O)Nc3ccccc3)nnc2n1`, the activity change, negative = inhibition was “inactive”. In the case of `CCOC(=O)c1c(CSc2ccsc2)n(C)c2cc(Br)c(O)c(CN(C)C)c12`, the activity change, negative = inhibition was inconclusive: 0.935%. With `COc1ccccc1/C=N/OCC(=O)NCc1ccc2c(c1)OCO2` the Potency was inconclusive: 29.1 µM [falling, single point]. For `COCCNC(=O)c1ccccc1NC(=O)CN(c1ccc2c(c1)OCO2)S(C)(=O)=O`, the activity change, negative = inhibition was inconclusive: -1.37%. In the case of `Cc1cccc(-n2nc3c(c2NC(=O)C(C)C)CS(=O)(=O)C3)c1C`, the activity change, negative = inhibition was inconclusive: -0.104%. With `Cc1noc(C)c1S(=O)(=O)N1CCCN(C(=O)/C=C/c2ccccc2F)CC1` the activity change, negative = inhibition was “inactive”. For `Cc1cccc(C)c1-n1nnnc1SCSc1nnnn1-c1c(C)cccc1C`, the activity change, negative = inhibition was inconclusive: 12.7%. For `CCCCOC(=O)Nc1ccc(C(=O)OC)cc1`, the activity change, negative = inhibition was inconclusive: 0.479%. With `Cn1c(=O)n(Cc2ccccc2F)c2ccccc21` the activity change, negative = inhibition was inconclusive: -1.04%. With `C=CCN1CCc2nc(N)sc2CC1` the activity change, negative = inhibition was “inactive”. For `Cc1ccc(-c2nc3sc(C#N)c(N)n3c(=O)c2C#N)cc1`, the activity change, negative = inhibition was “inactive”. For `COc1ccccc1NC(=O)CN1C(=O)COc2ccc(C)cc21`, the activity change, negative = inhibition was inconclusive: 4.77%. With `COc1cccc(NC(=O)C(=O)NCC2CCCN2S(=O)(=O)c2ccccc2)c1` (stereo unspecified) the Potency was inconclusive: 20.6 µM [rising, single point].
